# This is one part of the list.
# B1: his-Lectin-24A (Drosophila melanogaster) (protein)
# chain: MFRLSVLVLNLLLVSHEFSAGTAKIEIQPLPALCNGYCFPTLKPVMEYVAIHQDKWNTCTEILANEARKDQIQLNIQLDALKADVSNIKASQLSKDEKLDRMEREQFAMHESLETINRYLTVKLDRTKLQLEAIKNTMDYMKAQMDGYFSAINGVQCLQPGFEKIGDRYFYIEEDVELNWLDAQAKCRRMGGHLASIKTKQEFDAIVEKLDDSKSYFLGVNENTKTGDFVSAASGKSCLYHEWGPGEPHHNNDQERCVSILRKLMHVGNCTYEKRFICQYGI
# Legend:
# Assay in all cases: glycan array binding signal (z-score within array); higher = stronger binding
# Details in all cases: glycan notation: IUPAC condensed, linker removed
# GlcNAc(b1-3)Man = molecular target: GlcNAc(b1-3)Man
# Method in brief: (§1)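 Glycan array binding is given as a within-array Z-score, which can be read as non-binding when negative. The arrays, 3228 of them, came from the Consortium for Functional Glycomics database and were retained only where the protein sequence was available. Z-scores were averaged across arrays of the same protein sequence at different concentrations or buffers and across linkers.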
# [1] = molecular target: GlcNAc(b1-3)[GlcNAc(b1-4)][GlcNAc(b1-6)]GlcNAc
# Method in brief: as §1
# [2] = molecular target: GlcNAc(b1-3)[GlcNAc(b1-6)]Gal(b1-4)GlcNAc
# Method in brief: as §1
# [3] = molecular target: GlcNAc(b1-3)[GlcNAc(b1-6)]GalNAc
# Method in brief: as §1
# [4] = molecular target: GlcNAc(b1-4)Gal(b1-4)GlcNAc
# Method in brief: as §1
# GlcNAc(b1-4)GlcNAc = molecular target: GlcNAc(b1-4)GlcNAc
# Method in brief: as §1
# [5] = molecular target: GlcNAc(b1-4)GlcNAc(b1-4)GlcNAc
# Method in brief: as §1
# [6] = molecular target: GlcNAc(b1-4)GlcNAc(b1-4)GlcNAc(b1-4)GlcNAc(b1-4)GlcNAc
# Method in brief: as §1
# [7] = molecular target: GlcNAc(b1-4)GlcNAc(b1-4)GlcNAc(b1-4)GlcNAc(b1-4)GlcNAc(b1-4)GlcNAc
# Method in brief: as §1
# [8] = molecular target: GlcNAc(b1-4)[GlcNAc(b1-6)]GalNAc
# Method in brief: as §1
# [9] = molecular target: GlcNAc(b1-6)Gal(b1-4)GlcNAc
# Method in brief: as §1
# GlcNAc(b1-6)GalNAc = molecular target: GlcNAc(b1-6)GalNAc
# Method in brief: as §1
# [10] = molecular target: GlcNAc6S(b1-3)Gal(b1-4)GlcNAc
# Method in brief: as §1
# Kdn(a2-3)Gal(b1-3)GalNAc = molecular target: Kdn(a2-3)Gal(b1-3)GalNAc
# Method in brief: as §1
# Kdn(a2-3)Gal(b1-3)GlcNAc = molecular target: Kdn(a2-3)Gal(b1-3)GlcNAc
# Method in brief: as §1
# Kdn(a2-3)Gal(b1-4)Glc = molecular target: Kdn(a2-3)Gal(b1-4)Glc
# Method in brief: as §1
# Kdn(a2-3)Gal(b1-4)GlcNAc = molecular target: Kdn(a2-3)Gal(b1-4)GlcNAc
# Method in brief: as §1
# [11] = molecular target: Kdn(a2-3)Gal(b1-4)[Fuc(a1-3)]GlcNAc
# Method in brief: as §1
# Kdn(a2-6)Gal(b1-4)GlcNAc = molecular target: Kdn(a2-6)Gal(b1-4)GlcNAc
# Method in brief: as §1
# [12] = molecular target: Man(a1-2)Man(a1-2)Man(a1-3)Man
# Method in brief: as §1
# [13] = molecular target: Man(a1-2)Man(a1-2)Man(a1-6)[Man(a1-3)]Man
# Method in brief: as §1
# Man(a1-2)Man(a1-3)Man = molecular target: Man(a1-2)Man(a1-3)Man
# Method in brief: as §1
# [14] = molecular target: Man(a1-2)Man(a1-3)[Man(a1-2)Man(a1-6)]Man
# Method in brief: as §1
# [15] = molecular target: Man(a1-2)Man(a1-3)[Man(a1-2)Man(a1-6)]Man(a1-6)[Man(a1-2)Man(a1-2)Man(a1-3)]Man
# Method in brief: as §1
# [16] = molecular target: Man(a1-2)Man(a1-3)[Man(a1-2)Man(a1-6)]Man(a1-6)[Man(a1-2)Man(a1-2)Man(a1-3)]Man(b1-4)GlcNAc(b1-4)GlcNAc
# Method in brief: as §1
# [17] = molecular target: Man(a1-2)Man(a1-3)[Man(a1-6)]Man(a1-6)[Man(a1-2)Man(a1-3)]Man(b1-4)GlcNAc(b1-4)GlcNAc
# Method in brief: as §1
# [18] = molecular target: Man(a1-2)Man(a1-6)[Man(a1-3)]Man(a1-6)[Man(a1-2)Man(a1-2)Man(a1-3)]Man
# Method in brief: as §1
# [19] = molecular target: Man(a1-2)Man(a1-6)[Man(a1-3)]Man(a1-6)[Man(a1-2)Man(a1-2)Man(a1-3)]Man(b1-4)GlcNAc(b1-4)GlcNAc
# Method in brief: as §1
# Man(a1-3)[Man(a1-6)]Man = molecular target: Man(a1-3)[Man(a1-6)]Man
# Method in brief: as §1
# [20] = molecular target: Man(a1-3)[Man(a1-6)]Man(a1-6)[Man(a1-2)Man(a1-3)]Man(b1-4)GlcNAc(b1-4)GlcNAc
# Method in brief: as §1
# [21] = molecular target: Man(a1-3)[Man(a1-6)]Man(a1-6)[Man(a1-3)]Man
# Method in brief: as §1
# [22] = molecular target: Man(a1-3)[Man(a1-6)]Man(a1-6)[Man(a1-3)]Man(b1-4)GlcNAc(b1-4)GlcNAc
# Method in brief: as §1
# [23] = molecular target: Man(a1-3)[Man(a1-6)]Man(b1-4)GlcNAc(b1-4)GlcNAc
# Method in brief: as §1
# [24] = molecular target: Man(a1-3)[Man(a1-6)]Man(b1-4)GlcNAc(b1-4)[Fuc(a1-6)]GlcNAc
# Method in brief: as §1
# Man(a1-6)Man = molecular target: Man(a1-6)Man
# Method in brief: as §1
# Man(b1-4)GlcNAc = molecular target: Man(b1-4)GlcNAc
# Method in brief: as §1
# MurNAc(b1-4)GlcNAc = molecular target: MurNAc(b1-4)GlcNAc
# Method in brief: as §1
# Neu5Ac(a2-3)Gal = molecular target: Neu5Ac(a2-3)Gal
# Method in brief: as §1
binder,measurement,setting,value
B1,glycan array binding signal (z-score),GlcNAc(b1-3)Man,-0.281
same,glycan array binding signal (z-score),[1],-0.274
same,glycan array binding signal (z-score),[2],1.02
same,glycan array binding signal (z-score),[3],-0.388
same,glycan array binding signal (z-score),[4],0.354
same,glycan array binding signal (z-score),GlcNAc(b1-4)GlcNAc,0.757
same,glycan array binding signal (z-score),[5],0.684
same,glycan array binding signal (z-score),[6],0.406
same,glycan array binding signal (z-score),[7],-0.433
same,glycan array binding signal (z-score),[8],0.423
same,glycan array binding signal (z-score),[9],0.608
same,glycan array binding signal (z-score),GlcNAc(b1-6)GalNAc,0.138
same,glycan array binding signal (z-score),[10],-0.677
same,glycan array binding signal (z-score),Kdn(a2-3)Gal(b1-3)GalNAc,0.552
same,glycan array binding signal (z-score),Kdn(a2-3)Gal(b1-3)GlcNAc,1.42
same,glycan array binding signal (z-score),Kdn(a2-3)Gal(b1-4)Glc,0.232
same,glycan array binding signal (z-score),Kdn(a2-3)Gal(b1-4)GlcNAc,1.1
same,glycan array binding signal (z-score),[11],0.638
same,glycan array binding signal (z-score),Kdn(a2-6)Gal(b1-4)GlcNAc,-0.061
same,glycan array binding signal (z-score),[12],-0.705
same,glycan array binding signal (z-score),[13],0.378
same,glycan array binding signal (z-score),Man(a1-2)Man(a1-3)Man,0.131
same,glycan array binding signal (z-score),[14],-0.589
same,glycan array binding signal (z-score),[15],0.072
same,glycan array binding signal (z-score),[16],-0.614
same,glycan array binding signal (z-score),[17],-1.11
same,glycan array binding signal (z-score),[18],-0.36
same,glycan array binding signal (z-score),[19],-0.052
same,glycan array binding signal (z-score),Man(a1-3)[Man(a1-6)]Man,0.162
same,glycan array binding signal (z-score),[20],-0.205
same,glycan array binding signal (z-score),[21],-0.238
same,glycan array binding signal (z-score),[22],-0.742
same,glycan array binding signal (z-score),[23],0.594
same,glycan array binding signal (z-score),[24],0.619
same,glycan array binding signal (z-score),Man(a1-6)Man,-0.73
same,glycan array binding signal (z-score),Man(b1-4)GlcNAc,1.1
same,glycan array binding signal (z-score),MurNAc(b1-4)GlcNAc,-0.281
same,glycan array binding signal (z-score),Neu5Ac(a2-3)Gal,-1.44

# Part of the list above in a different format:
binder	measurement	setting	value
B1	glycan array binding signal (z-score)	Kdn(a2-6)Gal(b1-4)GlcNAc	-0.061
same	glycan array binding signal (z-score)	[12]	-0.705

# — the supplement of paper PMC8728848
